Experimental data from US20250304658A1.
Numbering of substitutions follows the chain as printed. Results are given in words; binding and its absence hold for the method and conditions named. A result given as binding can be weak or reduced; the word gives no strength.

B1: 2B9 (antibody, V domains shown)
VH: EVQLLESGGGLAQPGKSLRLSCAASGFTFSGFAMSWVRQAPGKGLEWVSGISGSGDITYYADSVKGRFTISRDNSKSTLYLQMNSLGAEDTAVYYCAKDPYNWNHGVYGMDVWGQGTTVTVSS
VL: DIQMTQSPSSLSASVGDRVTITCRASQSISSYLNWYQQKPGKAPKFLIYGASSLQSGVPSRFSGSGSGTDFTLTISSLQPEDFAAYYCQQSFNAPLTFGGGTKVEIK
B2: 7H8 (antibody, V domains shown)
VH: EVQLLESGGGLVQPGGSLRLSCAASGFAFHTYDMTWVRQAPGKGLEWVSGVVGSGINTYYADSVKGRFTISRDNSKSTLYLQMNSLRAEDTAVYYCAKDSSSWFSLHYWGQGTLVTVSS
VL: DIQMTQSPSTLSASVGDRVTITCRASQSISNWLAWYQQKPGKAPKLLIYKASSLESGVPSRFSGSGSGTDFTLTISSLQPDDFASYYCQQYRSYAYTFGQGTKLEIT
B3: 2F7 (antibody, V domains shown)
VH: QVQLVESGGGLVKPGGSLRLSCVASGFTFSDYYMNWIRLPPGRGLQWISYIDSSAGAIYYADSVKGRFTVSRDDAKNSLYLQMNSLRADDTAVYYCARERRDGHKIFDWWGQGTLVTVSS
VL: DIVMTQSPDSLAVSLGERATINCKSSQNILYTSNNKNYLGWYQQKAGQPPKLLIYWSSTRNSGVPDRFSGSGSGTDFTLTISSLQAEDVAVYYCHQYYSSPYTFGQGTNLEIK
B4: 8A11 (antibody, V domains shown)
VH: B3 VH with G10D, R43K, Q46E, I58T, Y80F, Q82H, D89E, D102S, W109C, Q112P
VL: B3 VL with T32S, G40A, Y55F, N61E, H95Q, T103N, Q106R, N109T
B5: 4F7 (antibody, V domains shown)
VH: B3 VH with G10D, R43K, Q46E, Y80F, Q82H, S85N, W109C, Q112P
VL: B3 VL with T32S, G40A, Y55F, N61E, H95Q, T103N, Q106R, N109T
B6: 5A8 (antibody, V domains shown)
VH: B3 VH with G10D, Q46E, N77K, Y80F, Q82Y, W109Y, Q112P
VL: B3 VL with T32S, G40A, Y55F, N61E, T103N, Q106R, N109T
B7: 8D10 (antibody, V domains shown)
VH: B3 VH with Q3H, G10D, R43K, Q46E, L79M, Y80F, Q82H, W109Y, Q112P
VL: B3 VL with T32S, G40A, Y55F, N61E, H95Q, T103N, Q106R, N109T
B8: 1H10 (antibody, V domains shown)
VH: B3 VH with Q3H, G10D, L39M, R43K, Q46E, Y80F, Q82H, S85N, W109C, Q112P
VL: B3 VL with T32S, G40A, Y55F, N61E, H95Q, T103N, Q106R, N109T
B9: 2H1 (antibody, V domains shown)
VH: B3 VH with G10D, R43K, Q46E, Y80F, Q82H, W109C, Q112P
VL: B3 VL with T32S, G40A, A46T, Y55F, N61E, H95Q, T103N, Q106R, N109T
B10: 7A4 (antibody, V domains shown)
VH: B3 VH with G10D, R43K, Q46E, Y80F, Q82H, A97V, W109Y, Q112P
VL: B3 VL with T32S, G40A, Y55F, T59I, N61E, H95Q, T103N, Q106R, N109T
B11: 9B4 (antibody, V domains shown)
VH: B3 VH with G10D, R43K, Q46E, Y80F, Q82H, D102E, W109F, Q112P
VL: B3 VL with V13L, T32S, G40A, W41C, Y55F, N61E, H95Q, T103N, Q106R, N109T
B12: 1E2 (antibody, V domains shown)
VH: B3 VH with G10D, R43K, Q46E, I48V, K65R, Y80F, Q82H, W109C, Q112P
VL: B3 VL with T32S, G40A, Y55F, N61E, S82N, H95Q, T103N, Q106R, N109T
B13: 14F5 (antibody, V domains shown)
VH: EVQLLESGGGLVQPGGSLRLSCAVSGFTFSSFAMSWVRQAPGKGLEWVSGISASGGTTNYADSVKGRFTISRDNSKNTLYLQMSSLRAEDTAEYYCAKDRFLEWVEGFDPWGQGILVTVSP
VL: DIQMTQSPSSLSASVGDRVTITCRASQSIGRFLIWYQQKPGKAPKLLLYATSSLQSGVPARFTGSGSGTDFTLTIGSLQPEDFATYYCQQSYITPLTFGGGTKVEIK
B14: 15C10 (antibody, V domains shown)
VH: B13 VH with V24A
VL: B13 VL
B15: 9G9 (antibody, V domains shown)
VH: EVQLLESGGGLVQPGGSLRLSCAASGFTFHNYAMSWVRQAPGKGLEWVSGISGSGGTAYYADSVKGRFTISRDNSKNTLYLQMNSLRADDTALYYCAKDRFLEWVEGFDSWGQGTLVTVSS
VL: B13 VL with R31S, L48I, T51A, A60S, T63S, T74I, G76S, I93N
B16: 6H12 (antibody, V domains shown)
VH: EVQLVESGGGLVQPGGSLRLSCAASGFTFSSYEMNWVRQAPGKGLEWVSYISSGGSSIKYADSVRGRFAFSRDNAENSVHLQMNSLRAEDTAVYYCARVGGSYYYSYAMDVWGQGTAVTVSS
VL: DIQLTQSPSFLSASVGDRVTITCWASQDISSYLAWYQQKPGKAPKLLIYAASTLQSGVPSRFTGSGSGTEFTLTISSLQPEDFATYYCQQPHNSPFSFGPGTKVDVK
B17: 11D12 (antibody, V domains shown)
VH: B16 VH with A69T, H80F, A88G
VL: B16 VL with T63S, H92N, S94Y

Target: BK virus VP1 protein, genotype I (BK virus)
Experiment: flow cytometry on cells transfected with genotype 1 VP1, wild type and mutants

Q: With B1 as the binder, how does the binding read?
A: binds

Target: BK virus VP1 protein, genotype I (BK virus)
Experiment: flow cytometry on cells transfected with genotype 1 VP1; wild type is the reference for the mutants

Q: How did the binding turn out when B2 was run?
A: binds

Q: Which binding does the source give for B3 here?
A: binds

Q: With B4 as the binder, how does the binding read?
A: binds

Q: How did the binding turn out when B5 was run?
A: binds

Q: Which binding does the source give for B6 here?
A: binds

Q: For B7, which binding is on record?
A: binds

Q: With B8 as the binder, how does the binding read?
A: binds

Q: How did the binding turn out when B9 was run?
A: binds

Q: Which binding does the source give for B10 here?
A: binds

Q: Which binding does the source give for B11 here?
A: binds

Q: Which binding does the source give for B12 here?
A: binds

Q: Which binding does the source give for B13 here?
A: binds

Q: Which binding does the source give for B14 here?
A: binds

Q: B15 was tested. Which binding did it give?
A: binds

Q: B16 was tested. Which binding did it give?
A: binds

Q: How did the binding turn out when B17 was run?
A: binds
